Here are results for 23 molecules from paper PMC12040169 (PLOS Biology, 2025).

The list shows a part of the results.

The subject of this test is T1, CTL2-GFP (C. trachomatis L2/434/Bu, GFP-expressing).
T1 construct: L2/434/Bu, GFP-expressing
Details: species or system HeLa; Intracellular C. trachomatis growth in HeLa cells, bulk GFP fluorescence relative to DMSO. The note with it: bulk GFP, single well; 28.5 h, 10 µM; inhibitor.
As for `CCOc1ccc(CN2CCN(C(=O)c3ccc(-c4ccccc4)cc3)CC2)cc1` [CBK263399], the “% of control remaining” value is reported as 95.5247%.

For the molecule `FC(F)(F)c1nnc(-c2cc3sccc3s2)o1` [CBK006303], the “% of control remaining” value worked out at 110.468%.

Take `CC(CC(=O)N1CCC(Oc2ccccc2F)CC1)n1cccn1` (centres unmarked) [CBK282118]: the “% of control remaining” value was 147.084%.

For `C=C(C)CN1CCN(CC(CC(=O)NCc2ccccc2)C(=O)O)CC1` (centres unmarked) [CBK286823], the “% of control remaining” value is listed as 140.402%.

As for `O=C(Nc1cccnc1)c1ccc(F)cc1Cl` [CBK288246], the “% of control remaining” value turned out to be 123.418%.

On to `CCN(CC)C1CCN(C(=O)Nc2cc(NC(C)=O)ccc2F)C1` (centres unmarked) [CBK305207], for which the “% of control remaining” value was found to be 135.188%.

In the case of `CC(C)c1noc(NCCc2cn3c(n2)CCCC3)n1` [CBK306444], the “% of control remaining” value is recorded as 100.093%.

`Cc1ccccc1NC(=O)CCC(=O)N/N=C/c1ccncc1` [CBK262016]: the “% of control remaining” value was found to be 123.561%.

Turning to `CCOC(=O)c1cn[nH]c1N` [CBK175217], the “% of control remaining” value is given as 110.004%.

In the case of `O=c1[nH]c(=O)c2cc(S(=O)(=O)N3CCCCC3CN3CCCCC3)ccc2[nH]1` (centres unmarked) [CBK286393], the “% of control remaining” value amounted to 135.992%.

As to `CCCC/C=C/c1nccnc1NCc1cccs1` [CBK038090], the “% of control remaining” value is 137.235%.

Consider `O=C(O)c1cccc(NS(=O)(=O)c2ccccc2)c1` [CBK155710], for which the “% of control remaining” value was 120.77%.

On to `CN(C)Cc1ccccc1C(O)c1ccccc1` (centres unmarked) [CBK261277], for which the “% of control remaining” value was found to be 120.367%.

For `COc1cccc(N2CCN(CCCOc3ccc(F)cc3)CC2)n1` [CBK010355F], the “% of control remaining” value is recorded as 111.494%.

As to `CCOC(=O)c1c(C)nc(-c2ccccc2)nc1NC(=O)C(C)C` [CBK028118], the “% of control remaining” value was determined as 109.956%.

In the case of `O=C(O)Cn1c(=O)[nH]c2c(-c3ccccc3)c[nH]c2c1=O` [CBK287218], the “% of control remaining” value is given as 138.346%.

With `Cc1ccc(-c2ncc(OCCn3ccnc3)nc2N)cc1C` [CBK145148], the “% of control remaining” value is 100%.

`Cc1occc1-c1nn(CCN2CCCCC2)c(=O)o1` [CBK283815]: the “% of control remaining” value came to 158.6%.

`O=C(NC1CCCCC1)c1ccc(-c2ccccc2)nc1NCCc1ccccn1` [CBK076553]: the “% of control remaining” value stood at 131.585%.

As to `CC(C)Oc1ccc(C(=O)C2=C(O)C(=O)N(Cc3cccnc3)C2c2cccc([N+](=O)[O-])c2)cc1` (centres unmarked) [CBK264936], the “% of control remaining” value came out at 131.373%.

For `CS(=O)(=O)Nc1ccc2cc(-c3ccccc3)cnc2n1` [CBK061899], the “% of control remaining” value turned out to be 127.415%.

Consider `O=C(Cn1c(-c2cccs2)cc2cccnc21)N1CCCC1` [CBK282453], for which the “% of control remaining” value is recorded as 131.592%.

Take `COc1cccc(Oc2cnc(-c3cccc(C(F)(F)F)c3)c(N)n2)c1` [CBK145177]: the “% of control remaining” value came to 100%.
